Source: patent US20220364162

Molecular target: T1, MutS (Thermus aquaticus) (UniProt Q56215)
T1 sequence (looked up, limits assumed): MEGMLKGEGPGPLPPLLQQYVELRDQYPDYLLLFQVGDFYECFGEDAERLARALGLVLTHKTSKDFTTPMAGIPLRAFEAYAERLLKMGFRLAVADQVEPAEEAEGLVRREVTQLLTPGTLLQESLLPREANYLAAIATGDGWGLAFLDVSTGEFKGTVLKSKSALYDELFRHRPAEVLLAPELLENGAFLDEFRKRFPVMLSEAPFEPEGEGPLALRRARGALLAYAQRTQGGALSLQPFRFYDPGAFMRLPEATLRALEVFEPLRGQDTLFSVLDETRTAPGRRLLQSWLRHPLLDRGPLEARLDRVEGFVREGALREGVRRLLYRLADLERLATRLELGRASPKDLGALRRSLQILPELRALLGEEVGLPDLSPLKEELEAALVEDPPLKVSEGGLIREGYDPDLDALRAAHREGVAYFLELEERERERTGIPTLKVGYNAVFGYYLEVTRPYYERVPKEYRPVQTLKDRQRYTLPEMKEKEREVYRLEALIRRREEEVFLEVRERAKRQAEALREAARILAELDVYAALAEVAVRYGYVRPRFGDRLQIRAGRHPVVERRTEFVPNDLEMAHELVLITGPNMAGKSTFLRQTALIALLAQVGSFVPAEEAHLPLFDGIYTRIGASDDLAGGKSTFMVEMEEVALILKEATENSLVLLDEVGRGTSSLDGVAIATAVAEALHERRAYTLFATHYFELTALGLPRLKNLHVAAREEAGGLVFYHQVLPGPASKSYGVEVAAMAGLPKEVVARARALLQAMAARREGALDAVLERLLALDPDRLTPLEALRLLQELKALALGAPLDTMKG
Test: binding assay
Conditions: probe strand 5'-thiol immobilised on Au-bridged nanoparticle; single-nanoparticle LSPR kinetics; kbinding 2.97e6 M-1 s-1; 100 mM NaCl, 5 mM MgCl2, pH 7.5, 18 C; purified recombinant protein; protein details: vendor Nippon Gene Co. (Tokyo); variant of homoDNA duplex (perfect match)

Sequence: ATTGAAAGTTGCAGAATCTGCCCAGGGTCCAGCTGCTGCTCATACTACTGA (double strand) [GT mismatch duplex (4956A>G target on Probe-GT)]
- Kd: 4.46 nM

Construct, isoform or probe ends are uncertain for at least one entry. Tags and fusion partners may be left off the protein sequences shown.
